Source: article PMC4317163
These are yes or no findings as the source states them, for the method shown. Binding seen in cells or lysates may run through a third protein. Some binding calls cover weakened binding; strength is not graded here. For some of these results: Tags and fused reporters may be left off the sequences shown. One block for each binder: values may come before it.

Legend:
[1] = target: T1, GST-Pita[95–209] (Drosophila) (UniProt Q95RQ8); test: pull-down; 6 × His (Ni-NTA) and GST (glutathione resin) pull-downs: 6 × His-CP190 fragments with GST-tagged Pita or ZIPIC fragments, coexpressed in E. coli BL21; washes with 500 mM NaCl, SDS-PAGE with Coomassie staining, anti-GST immunoblot for the 6 × His pull-down
T1 sequence: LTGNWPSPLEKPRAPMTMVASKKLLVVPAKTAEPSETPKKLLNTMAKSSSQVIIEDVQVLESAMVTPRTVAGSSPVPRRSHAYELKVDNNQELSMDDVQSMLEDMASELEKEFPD

[2] = target: T2, CP190 (cotransfected in S2 cells) (Drosophila) (UniProt Q24478); test: co-IP; nuclear extracts from S2 cells cotransfected with CP190 and 3 × FLAG-Pita/ZIPIC, immunoprecipitated with antibodies against CP190 (nonspecific IgG as negative control), Western blot for FLAG-tagged proteins
T2 sequence: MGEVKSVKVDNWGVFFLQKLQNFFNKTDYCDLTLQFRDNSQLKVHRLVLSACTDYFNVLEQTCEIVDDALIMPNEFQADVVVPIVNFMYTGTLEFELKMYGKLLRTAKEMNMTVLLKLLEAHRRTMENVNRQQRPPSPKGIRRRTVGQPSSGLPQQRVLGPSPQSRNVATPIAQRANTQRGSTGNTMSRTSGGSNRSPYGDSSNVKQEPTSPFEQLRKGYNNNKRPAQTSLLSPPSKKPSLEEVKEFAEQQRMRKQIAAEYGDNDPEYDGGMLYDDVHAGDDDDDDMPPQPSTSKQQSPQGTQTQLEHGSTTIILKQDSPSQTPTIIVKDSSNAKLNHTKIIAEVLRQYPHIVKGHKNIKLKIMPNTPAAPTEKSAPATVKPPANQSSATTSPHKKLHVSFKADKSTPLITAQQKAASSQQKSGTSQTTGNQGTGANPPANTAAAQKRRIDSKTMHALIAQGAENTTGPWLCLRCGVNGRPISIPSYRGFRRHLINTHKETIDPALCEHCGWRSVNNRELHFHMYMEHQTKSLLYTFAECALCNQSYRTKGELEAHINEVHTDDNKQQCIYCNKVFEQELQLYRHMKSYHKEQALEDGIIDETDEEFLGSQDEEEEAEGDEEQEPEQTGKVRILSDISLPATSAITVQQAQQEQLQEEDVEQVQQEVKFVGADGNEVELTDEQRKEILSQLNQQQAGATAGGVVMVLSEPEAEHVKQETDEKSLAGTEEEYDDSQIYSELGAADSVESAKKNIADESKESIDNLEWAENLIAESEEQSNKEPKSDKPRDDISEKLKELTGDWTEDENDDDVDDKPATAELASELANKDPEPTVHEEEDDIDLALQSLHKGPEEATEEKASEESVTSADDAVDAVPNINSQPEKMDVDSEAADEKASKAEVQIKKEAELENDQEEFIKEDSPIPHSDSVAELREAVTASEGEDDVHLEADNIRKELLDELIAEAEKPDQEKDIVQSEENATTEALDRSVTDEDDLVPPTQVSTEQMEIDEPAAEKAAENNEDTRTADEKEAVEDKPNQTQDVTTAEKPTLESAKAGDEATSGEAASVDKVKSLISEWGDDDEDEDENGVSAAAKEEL

[3] = target: T3, Pita (endogenous, embryos) (Drosophila (endogenous in embryos)) (UniProt Q95RQ8); test: co-IP; nuclear extracts from Drosophila embryos (0-12 h) immunoprecipitated with antibodies against CP190, Pita or ZIPIC (nonspecific IgG as negative control), Western blot for Pita, ZIPIC and CP190
T3 sequence: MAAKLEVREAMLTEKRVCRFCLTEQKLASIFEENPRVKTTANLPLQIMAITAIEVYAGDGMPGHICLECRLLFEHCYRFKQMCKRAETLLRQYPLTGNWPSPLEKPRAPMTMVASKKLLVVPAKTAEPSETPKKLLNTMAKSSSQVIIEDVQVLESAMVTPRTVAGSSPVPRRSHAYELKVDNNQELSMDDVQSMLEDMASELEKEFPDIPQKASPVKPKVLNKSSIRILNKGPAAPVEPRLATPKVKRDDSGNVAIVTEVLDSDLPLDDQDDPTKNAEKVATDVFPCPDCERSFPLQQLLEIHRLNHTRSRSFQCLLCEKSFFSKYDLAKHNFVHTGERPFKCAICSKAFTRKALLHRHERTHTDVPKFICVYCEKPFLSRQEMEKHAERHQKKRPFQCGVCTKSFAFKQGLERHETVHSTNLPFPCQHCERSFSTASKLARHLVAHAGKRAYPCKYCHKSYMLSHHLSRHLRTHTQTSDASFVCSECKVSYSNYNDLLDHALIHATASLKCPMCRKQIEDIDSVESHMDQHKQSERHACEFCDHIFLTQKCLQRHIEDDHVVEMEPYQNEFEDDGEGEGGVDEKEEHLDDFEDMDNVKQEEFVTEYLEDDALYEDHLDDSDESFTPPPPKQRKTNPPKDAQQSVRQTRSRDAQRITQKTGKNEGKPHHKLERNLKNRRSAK

[4] = target: T4, CP190 (endogenous, embryos) (Drosophila (endogenous in embryos)) (UniProt Q24478); test: as above
T4 sequence: T2 sequence

[5] = target: T5, GST-ZIPIC[84–257] (Drosophila) (UniProt Q9VAB8); test: pull-down; 6 × His (Ni-NTA) and GST (glutathione resin) pull-downs: 6 × His-CP190 fragments with GST-tagged Pita or ZIPIC fragments, coexpressed in E. coli BL21; washes with 500 mM NaCl, SDS-PAGE with Coomassie staining, anti-GST immunoblot for the 6 × His pull-down
T5 sequence: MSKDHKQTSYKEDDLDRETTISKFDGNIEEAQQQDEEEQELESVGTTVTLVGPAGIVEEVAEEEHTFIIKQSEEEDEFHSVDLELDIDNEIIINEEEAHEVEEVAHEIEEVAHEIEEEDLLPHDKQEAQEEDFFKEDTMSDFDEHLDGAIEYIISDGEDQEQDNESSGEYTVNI

B1: 6 × His-CP190[1–126] (domain or fragment, UniProt Q24478 1-126)
chain: MGEVKSVKVDNWGVFFLQKLQNFFNKTDYCDLTLQFRDNSQLKVHRLVLSACTDYFNVLEQTCEIVDDALIMPNEFQADVVVPIVNFMYTGTLEFELKMYGKLLRTAKEMNMTVLLKLLEAHRRTM
- binding [1]: binds

B2: 3 × FLAG-ZIPIC (protein, UniProt Q9VAB8 1-457)
chain: MNCCICQFSVRVPKDIHTDTVGHPPVLISELVLQCTRGTNYVLTEESSTICKKCCEKLARYHKSIQIARKLRGEILELIHSPYMSKDHKQTSYKEDDLDRETTISKFDGNIEEAQQQDEEEQELESVGTTVTLVGPAGIVEEVAEEEHTFIIKQSEEEDEFHSVDLELDIDNEIIINEEEAHEVEEVAHEIEEVAHEIEEEDLLPHDKQEAQEEDFFKEDTMSDFDEHLDGAIEYIISDGEDQEQDNESSGEYTVNIQCPSCPEKFSSRRAYNVHTKREHFPGYVCDQCGKTLQSYSGFIGHLQNHEPVKQFACPVCPERFSRKFRLKHHMAWHSGETPYQCDVCSKRFVHKVALYKHKMIHDSETKRLECQVCGFKTRTKAHLERHMRSHTGDKPFACPVCNKRFSQMYNMKAHLREHESPGTNRHRRFHCSKCTHTFINEQNYDAHVQRDDCTPV
- binding [2]: binds

B5: 3 × FLAG-Pita (protein, UniProt Q95RQ8 1-683)
chain: T3 sequence
- binding [2]: binds

Second part, the binder after the results:

- binding [3]: binds weakly
- binding [4]: binds
B3: ZIPIC (endogenous, embryos) (protein, UniProt Q9VAB8 1-457)
chain: B2 chain

- binding [5]: binds
B4: 6 × His-CP190[245–599] (domain or fragment, UniProt Q24478 245-599)
chain: KEFAEQQRMRKQIAAEYGDNDPEYDGGMLYDDVHAGDDDDDDMPPQPSTSKQQSPQGTQTQLEHGSTTIILKQDSPSQTPTIIVKDSSNAKLNHTKIIAEVLRQYPHIVKGHKNIKLKIMPNTPAAPTEKSAPATVKPPANQSSATTSPHKKLHVSFKADKSTPLITAQQKAASSQQKSGTSQTTGNQGTGANPPANTAAAQKRRIDSKTMHALIAQGAENTTGPWLCLRCGVNGRPISIPSYRGFRRHLINTHKETIDPALCEHCGWRSVNNRELHFHMYMEHQTKSLLYTFAECALCNQSYRTKGELEAHINEVHTDDNKQQCIYCNKVFEQELQLYRHMKSYHKEQALEDGI

- binding [4]: binds
B6: Pita (endogenous, embryos) (protein, UniProt Q95RQ8 1-683)
chain: T3 sequence
